Drawing on paper PMC8083959, this text covers binding for two molecules.

Results are given in words; binding and its absence hold for the method and conditions named. For some assays here: Where a sequence is shown, tags or fusion partners need not be part of it.

The target in test [1] is PDZD7 HHD (harmonin homology domain, a.a. 546–646) (Mus musculus) (UniProt E9Q9W7). The experiment in a line: SEC-MALS; Superose 12 10/300 GL column, miniDAWN and Optilab detectors; samples loaded at 300 μl and 50 μM; both purified. (In gel filtration, larger molecules generally elute earlier.)
Test [2] deals with Trx-tagged PDZD7 HHD-L wild type (HHD 508–646) (Mus musculus) (UniProt E9Q9W7). The description is as above.

B1: PDZD7 HHD (harmonin homology domain, a.a. 546–646) (domain or fragment, UniProt E9Q9W7 546-646)
chain: TVNEQVQAWESRRPLIQDLARRLLTDDEVLAVTRHCSRYVHEGGVEDLVRPLLAILDRPTKLLLLRDIRSVVAPTDLGRFDSMVMPVELEAFEALKSRAVG
As to B1, in test [1], the binding entry was “no binding (tested: 50 μM)”.

B2: Trx-tagged PDZD7 HHD-L wild type (HHD 508–646) (domain or fragment, UniProt E9Q9W7 508-646)
chain: AGSVGPVQKFVTWRLRRDRERGRALLSARSGSPSGQAPTVNEQVQAWESRRPLIQDLARRLLTDDEVLAVTRHCSRYVHEGGVEDLVRPLLAILDRPTKLLLLRDIRSVVAPTDLGRFDSMVMPVELEAFEALKSRAVG
Consider B2, for which, in test [2], the binding result was “no binding (tested: 50 μM)”.
